Source: PubChem BioAssay AID686943 (Drosophila RNAi Screening Center, 2013)
Purpose: 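Fly genes whose loss alters ERK activation after insulin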 (primary screen). System: Drosophila S2R+ haemocyte-like cells expressing YFP-tagged ERK (Rolled). Reagents: long dsRNA against Drosophila genes. Conditions: insulin stimulation versus unstimulated cells; dose and duration not given. Detection: 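Per-plate z-scores of phospho-ERK immunostaining normalised to YFP-tagged ERK, measured with and without insulin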. Direction: replicate 1, z-score of dpERK with insulin and replicate 2, z-score of dpERK with insulin: higher = more active ERK per ERK-YFP after insulin; replicate 1, z-score of dpERK under basal conditions: higher = more basal active ERK per ERK-YFP; replicate 1, z-score of ERK-YFP with insulin: higher = more YFP-tagged ERK signal.
The deposit covers about 23,000 reagents; shown is an unselected part of those with a known target gene and a result. 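Extra replicates exist only for a retested subset of genes; insulin dose and duration not given; both raised and lowered dpERK matter.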 Not given: the amount of reagent, the time to read-out.

no.	target	DRSC id	replicate 1, z-score of dpERK with insulin	replicate 2, z-score of dpERK with insulin	replicate 1, z-score of dpERK under basal conditions	replicate 1, z-score of ERK-YFP with insulin
1	btsz (bitesize)	DRSC14982	-0.23	-3.42	-0.66	2.4
2	btsz (bitesize)	DRSC15222	-0.54	-3.21	-1.3	1.73
3	btsz (bitesize)	DRSC15320	4.07	0.49	-0.47	-2.12
4	btsz (bitesize)	DRSC16231	0.2	-1.57	2.49	-0.67
5	CG1620	DRSC06603	-0.68	0.19	1.82	0.16
6	CG15483	DRSC02493	0.09	0.39	-0.14	-0.41
7	CG8097	DRSC20079	-0.18	-0.03	-0.38	-0.09
8	CG34348	DRSC19425	-0.81	-0.05	-1.61	-0.18
9	CG34348	DRSC19644	0.03	-0.13	-0.03	0.29
10	mRpS33 (mitochondrial ribosomal protein S33)	DRSC14239	-0.3	0.81	-1.14	0.29
11	Smyd4-1 (SET and MYND domain containing, class 4, member 1)	DRSC06785	0.16	-0.52	0.61	0.04
12	Lrt (Leucine-rich tendon-specific protein)	DRSC06045	0.72	0.13	-2.04	0.38
13	nero	DRSC15432	0	-0.23	-0.19	0
14	CCHa2-R (CCHamide-2 receptor)	DRSC04825	1.14	0.61	-1.54	-5.32
15	CCHa2-R (CCHamide-2 receptor)	DRSC04870	0.82	0.65	0.06	-0.26
16	CCHa2-R (CCHamide-2 receptor)	DRSC04871	0.25	1.25	-0.33	0.97
17	Not10 (CCR4-NOT transcription complex subunit 10)	DRSC14129	-0.68	-0.39	-0.77	1.06
18	CG7914	DRSC20068	-0.08	0.01	1.17	0.32
19	CG6574	DRSC16070	0.01	0.28	-0.08	-0.3
20	Spg7 (Paraplegin)	DRSC18469	0.33	0	0.61	-0.27

The list goes on (8 carried over from the part before).
no.	target	DRSC id	replicate 1, z-score of dpERK with insulin	replicate 2, z-score of dpERK with insulin	replicate 1, z-score of dpERK under basal conditions	replicate 1, z-score of ERK-YFP with insulin
13	nero	DRSC15432	0	-0.23	-0.19	0
14	CCHa2-R (CCHamide-2 receptor)	DRSC04825	1.14	0.61	-1.54	-5.32
15	CCHa2-R (CCHamide-2 receptor)	DRSC04870	0.82	0.65	0.06	-0.26
16	CCHa2-R (CCHamide-2 receptor)	DRSC04871	0.25	1.25	-0.33	0.97
17	Not10 (CCR4-NOT transcription complex subunit 10)	DRSC14129	-0.68	-0.39	-0.77	1.06
18	CG7914	DRSC20068	-0.08	0.01	1.17	0.32
19	CG6574	DRSC16070	0.01	0.28	-0.08	-0.3
20	Spg7 (Paraplegin)	DRSC18469	0.33	0	0.61	-0.27
21	Hrb87F (Heterogeneous nuclear ribonucleoprotein at 87F)	DRSC16708	-0.72	0.25	-0.29	-0.01
22	Zn72D (Zinc-finger protein at 72D)	DRSC11318	0.8	0.22	-0.16	-0.88
23	CG13159	DRSC06283	-0.04	-0.11	-0.32	0.54
24	CG33229	DRSC07863	-0.11	1.62	0.76	0.87
25	CG11529	DRSC09839	-0.57	0.4	-0.15	-0.05
26	IntS14 (Integrator 14)	DRSC00668	0.17	-0.19	-0.05	1.11
27	CG14292	DRSC14772	0.42	0.3	2.07	-0.45
28	CG4270	DRSC00648	-0.34	-0.08	-0.29	0.44
29	CG4452	DRSC10422	0.36	0.24	0.62	0.25
30	dve (defective proventriculus)	DRSC04680	-0.24	-0.61	0.83	0.01
31	Rad23	DRSC17167	-0.66	0.08	0.93	0.92
32	vas (retired record)	DRSC22007	0.17	-0.05	-0.78	0.75
33	RN-tre (Related to the N terminus of tre oncogene)	DRSC07521	-0.06	-0.8	2.18	-0.63
34	pHCl-1 (pH-sensitive chloride channel 1)	DRSC09401	-0.15	-0.47	-1.14	-0.33
35	pHCl-1 (pH-sensitive chloride channel 1)	DRSC09888	0.44	0.15	1.07	0.04
36	pHCl-1 (pH-sensitive chloride channel 1)	DRSC09991	0.45	-0.26	0.78	0.04
37	pHCl-1 (pH-sensitive chloride channel 1)	DRSC10589	-0.48	0.92	0.27	0.84
38	pita	DRSC04006	-1.13	-0.67	-0.32	0.42
39	pita	DRSC04435	0.48	-0.31	0.47	0.09
40	Traf4 (TNF-receptor-associated factor 4)	DRSC00445	2.77	0.58	-2.34	0.61
41	Traf4 (TNF-receptor-associated factor 4)	DRSC00794	0.1	0.49	-0.19	-0.81
42	ckd (cracked)	DRSC08418	0.64	0.11	0.75	0.44
43	Kr (Kruppel)	DRSC04622	0.75	0.21	0.69	0.04
44	Srp72 (Signal recognition particle 72)	DRSC15800	-0.05	-0.95	-0.87	-0.7
45	CG3492	DRSC04373	-0.2	0.49	-0.37	0.39
46	Traf6 (TNF-receptor-associated factor 6)	DRSC18725	0.91	0.45	-0.02	0.28
47	CG13369	DRSC18481	-1.18	-0.7	-0.9	-0.19
48	Atg18b (Autophagy-related 18b)	DRSC03108	1.28	0.42	1.34	-0.13
49	CG3651	DRSC03730	0.38	0.38	1.09	0.11
50	CG5800	DRSC19962	0.31	0.23	0.44	0.68
51	barc (barricade)	DRSC11792	0.51	0.11	0.84	0.53
52	Glg1 (Golgi complex-localized glycoprotein 1)	DRSC11815	0.05	-0.47	-1.16	0.71
53	Glg1 (Golgi complex-localized glycoprotein 1)	DRSC11816	0.49	0.58	-0.31	-0.15
54	Glg1 (Golgi complex-localized glycoprotein 1)	DRSC11817	0.02	-0.13	1.76	0.45
55	CG15514	DRSC15053	-0.2	0.35	-0.81	1.38
56	ZnT35C (Zinc transporter 35C)	DRSC01959	-1.14	0.03	0.2	0.42
57	CG31515	DRSC13610	2.68	4.24	6.52	-7.5
